# Assay results: PubChem BioAssay AID504467 (National Center for Advancing Translational Sciences (NCATS), 2011)
# Hit rate of the full screen: of about 330,000 compounds, about 7,700 (2.3%) were called active. The inconclusive results got no clear call from the source; some entries with a clear call stand among them for comparison. Calls follow the shape of the dose curve; as a rule, active = well fitted inhibition curve with a large enough effect; inconclusive = small, poorly fitted or top-dose-only effect, or effect the other way; inactive = flat fitted curve, though single readings scatter. Where the call is inconclusive, the potency comes from a doubtful curve fit.
# Assay: qHTS screen for small molecules that inhibit ELG1-dependent DNA repair in human embryonic kidney (HEK293T) cells expressing luciferase-tagged ELG1; also: nearly all actives have a fitted effect of over 55% in size
# Conditions: HEK293T ELG1-luciferase reporter, luminescence, 16 h, DNA damage induced by 5-fluorouridine; series mostly up to 46.1 µM
# Outline: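 HEK293T cells expressing luciferase-tagged ELG1 (2,000/well) received 5-Fluorouridine plus compound or DMSO for 16 hr at 37 °C. Luciferase was read by ONE-Glo luminescence after 30 min at room temperature.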
# Potency is read from the fitted curve at half-maximal effect.
row,SMILES,Potency
1,O=C1C(C=NC2CC2)=C(O)c2ccccc21,"inconclusive: 20.6 µM [activator, partial curve]"
2,C=CCn1c(SCc2c(C)noc2C)nc2sc(C)c(C)c2c1=O,"inconclusive: 29.1 µM [inhibitor, single point]"
3,O=C(NNc1nc(-c2ccccc2)c2cc(Br)ccc2n1)c1ccc(S(=O)(=O)N2CCOCC2)cc1,"inconclusive: 23.1 µM [inhibitor, single point]"
4,CCN1CCN(Cc2ccc(NC(=O)Nc3ccccc3)cc2)CC1,"inconclusive: 3.66 µM [activator, partial curve]"
5,CCOC(=O)C1CCN(S(=O)(=O)c2ccc3c4c2CC(=O)N4CC(C)S3)CC1 (stereo not drawn),inactive
6,Cc1cc(C)cc(NC(=O)c2ccc(CN3CCc4ccccc4C3)cc2)c1,"inconclusive: 20.6 µM [inhibitor, single point]"
7,C(=N\c1nc2ccccc2[nH]1)/c1cccs1,inactive
8,CCN(Cc1ccccc1)C(c1ccncc1)c1nnnn1C(C)(C)C (stereo not drawn),inactive
9,COc1ccc(C(CC(=O)Nc2ccc(C)cn2)N2Cc3ccccc3C2=O)cc1 (stereo not drawn),inactive
10,COc1ccc2oc(C)c(C(=O)c3ccc(C)cc3)c2c1,inactive
11,Cc1cccc(C(=O)N2CCc3cc(-c4nc(NC(=O)CN5CCCC5)sc4C)ccc32)c1,inactive
12,O=C(NCc1ccc(Cl)cc1)c1n[nH]c([N+](=O)[O-])c1Cl,"inconclusive: 29.1 µM [inhibitor, single point]"
13,O=C(Nc1cc(Cl)cc(Cl)c1)c1cnn2cccnc12,"inconclusive: 29.1 µM [activator, partial curve, poor fit]"
14,Oc1c(C(c2ccc(Cl)cc2)N2CCCC2)cc(Cl)c2cccnc12 (stereo not drawn),"inconclusive: 6.51 µM [inhibitor, single point]"
15,CCOC(=O)Cc1csc(NC(=O)c2cc3ccccc3o2)n1,"inconclusive: 8.2 µM [activator, partial curve, poor fit]"
16,O=C(CC1OCC2CCCN2C1=O)Nc1ccc([N+](=O)[O-])cc1 (stereo not drawn),inactive
17,CC(C)CNC(=O)C(=O)NNC(=O)c1ccco1,inactive
18,CCn1c(SCC(=O)N2CCN(c3ccccc3)CC2)nnc1-c1ccoc1C,active: 16.4 µM
19,COC(C[C@@H](O)C[C@H](O)COCc1ccccc1)OC,inactive
20,COC(=O)C1C(=O)c2c([nH]c(C(=O)OCCOC(C)C)c2C)CC1C (stereo not drawn),inactive
21,O=C(c1ccc(Cl)s1)N1CCN(c2nc3ccccc3s2)CC1,"inconclusive: 20.6 µM [inhibitor, single point]"
22,CC1C/C(=N/Nc2nc3ccccc3[nH]2)CC(C)(C)C1 (stereo not drawn),inactive
23,CCN(CC(=O)Nc1ccccc1C(F)(F)F)C(=O)CSCc1ccc(C)cc1,inactive
24,CC(=O)c1c(C)[nH]c(C(=O)Nc2ccc(F)cc2F)c1C,"inconclusive: 23.1 µM [activator, partial curve, poor fit]"
25,CCCN(CC(=O)Nc1ccc(F)c(F)c1F)C(=O)C1CC(=O)N(Cc2ccccc2)C1 (stereo not drawn),inactive

row,SMILES,Potency
1,O=C(CN1C(=O)C2CCCCC2C1=O)OCC(=O)c1ccc(F)cc1 (stereo not drawn),inactive
2,COc1ccc(S(=O)(=O)N2CCN(C(=O)c3cccs3)CC2)cc1,"inconclusive: 1.26 µM [inhibitor, full curve]"
3,COc1ccc(-c2noc(CCCC(=O)NC3CCCC3)n2)cc1,active: 4.61 µM
4,O=C1OC(Nc2ccc(Br)cc2F)c2ccccc21 (stereo not drawn),"inconclusive: 20.6 µM [inhibitor, partial curve, poor fit]"
5,CCCCOC(=O)c1[nH]c2c(c1C)C(=O)CC(c1cc(OC)c(OC)c(OC)c1)C2 (stereo not drawn),"inconclusive: 5.8 µM [inhibitor, partial curve, poor fit]"
6,CCCOc1ccc2oc(=O)c3c(c2c1)CCCN3C(=O)CN(C)Cc1ccccc1,"inconclusive: 29.1 µM [inhibitor, single point]"
7,COCCNC(=O)C(=O)NCC(c1ccc2c(c1)OCO2)N1CCN(c2ccc(F)cc2)CC1 (stereo not drawn),inactive
8,COc1ccc(NC(=O)c2ccc3c(=O)n(-c4ccc(OC)cc4OC)c(=S)[nH]c3c2)cc1,"inconclusive: 20.6 µM [inhibitor, single point]"
9,CCc1ccc(OCCCC(=O)Nc2cccc(C(=O)O)c2)cc1,inactive
10,CC(OC(=O)Cc1c[nH]c2ccccc12)C(=O)N(C)c1ccccc1 (stereo not drawn),"inconclusive: 23.1 µM [activator, partial curve, poor fit]"
11,Cc1ccc(C)c(N(C(=O)c2snc(C(N)=O)c2N)C(C(=O)NCC2CCCO2)c2ccc(C)o2)c1 (stereo not drawn),"inconclusive: 29.1 µM [inhibitor, single point]"
12,COc1ccc(C)cc1NC(=O)Nc1cnccn1,"inconclusive: 20.6 µM [inhibitor, partial curve]"
13,Oc1ccc(Cl)cc1C=NCCc1ccccc1,"inconclusive: 18.4 µM [activator, partial curve, poor fit]"
14,CCOC(=O)N1CCN(C(=O)c2cc(COc3c(F)cccc3F)on2)CC1,"inconclusive: 16.4 µM [activator, partial curve]"
15,COc1cccc(C(=O)O/N=C(\N)c2ccccn2)c1,"inconclusive: 2.59 µM [activator, partial curve]"
16,CCCCN(CC)S(=O)(=O)c1ccc(C(=O)Nc2nnc(-c3ccccc3Cl)o2)cc1,"inconclusive: 11.6 µM [inhibitor, partial curve]"
17,CCN(CC)CCNC(=O)NC1CCCCC1,"inconclusive: 20.6 µM [activator, partial curve, poor fit]"
18,O=C(c1cc2ccccc2c(=O)o1)N1CCCCCC1,"inconclusive: 18.4 µM [activator, partial curve]"
19,COc1cccc(/C=C2\SC(=S)N(CCCC(=O)N3CCCCC3CCO)C2=O)c1 (stereo not drawn),"inconclusive: 3.66 µM [inhibitor, partial curve, poor fit]"
20,Cc1cccc(NC(=S)NC(=O)C2CC2)c1,"inconclusive: 23.1 µM [activator, partial curve]"
21,NC(=O)CC[C@H](NC(=O)[C@H](Cc1ccccc1)n1c(=O)[nH]c2ccccc2c1=O)C(=O)N1CCC[C@H]1C(=O)O,"inconclusive: 0.146 µM [activator, single point]"
22,Cc1cnc(NC(=O)CN2C(=O)C3CC=CCC3C2=O)s1 (stereo not drawn),"inconclusive: 29.1 µM [inhibitor, single point]"
23,COc1cccc(C2=NOC(C(=O)Nc3cc(C)nn3-c3ccccc3)C2)c1OC (stereo not drawn),active: 23.1 µM
24,O=C(NCc1cccnc1)/C(=C\c1ccc(-c2ccc(Cl)c(Cl)c2)o1)S(=O)(=O)c1ccccc1,active: 7.31 µM
25,O=C(COC(=O)C12CC3CC(CC(Br)(C3)C1)C2)Nc1cccnc1Cl,inactive

row,SMILES,Potency
1,COc1ccc(N2C(=O)C3CCCN3C2c2cccc(OC)c2)cc1 (stereo not drawn),"inconclusive: 20.6 µM [activator, partial curve, poor fit]"
2,O=C(CCN1C(=O)/C(=C/c2ccco2)SC1=S)Nc1ccc(O)cc1C(=O)O,inactive
3,CS/C(=N\S(=O)(=O)c1cccs1)Nc1cccc(Cl)c1C,inactive
4,CCOc1cc(-c2noc(-c3cccnc3)n2)ccc1OC,inactive
5,Cc1cc(C)cc(OCC(=O)Nc2ccc(-n3cnnn3)cc2)c1,inactive
6,COc1ccc2cc3c(N)c(C(=O)NCc4ccco4)sc3nc2c1,"inconclusive: 3.66 µM [activator, partial curve, poor fit]"
7,COc1ccc(NC(=O)NCCCN2CCCC2=O)cc1,"inconclusive: 0.58 µM [inhibitor, partial curve, poor fit]"
8,COc1cc2c(-c3ccc(O)cc3)nc3c(c(C)nn3-c3ccccc3)c2cc1OC,active: 9.2 µM
9,CC(C)Cn1c(SCC(=O)N2CCN(C(=O)c3ccco3)CC2)nc2ccccc2c1=O,inactive
10,COc1ccc(CCNc2ncnc3[nH]ncc23)cc1OC,"inconclusive: 23.1 µM [inhibitor, single point]"
11,O=C1CC(/C=C/c2cccnc2)=Nc2ccccc2N1,"inconclusive: 29.1 µM [inhibitor, single point]"
12,Cc1nonc1OCCN1CCN(c2ccc([N+](=O)[O-])cc2)CC1,active: 20.6 µM
13,COc1ccccc1-c1c(C)nn2c(N3CCC4(CC3)OCCO4)cc(C)nc12,"inconclusive: 18.4 µM [inhibitor, partial curve]"
14,NC(=O)c1ccc(NC(=O)COC(=O)c2ccccc2Nc2ccccc2)cc1,"inconclusive: 5.17 µM [inhibitor, partial curve, poor fit]"
15,COc1ccc(C2=NO[C@@H]3C(=O)N(c4ccc5c(c4)OCCO5)C(=O)[C@H]23)cc1OC,"inconclusive: 23.1 µM [activator, partial curve]"
16,COc1ccc(CNC(=O)CSc2nnnn2-c2ccccc2)cc1,inactive
17,Nc1nc2ccccc2n1CCOc1ccccc1Cl,inactive
18,O=C(c1ccc2oc(CCCc3ccccc3)nc2c1)N1CCCC1,"inconclusive: 14.6 µM [activator, partial curve]"
19,CCN(CC)C(=O)C(=O)Nc1cccc(Br)c1,"inconclusive: 14.6 µM [activator, partial curve]"
20,Cc1ccc(-n2nc(C(=O)N3CCOCC3)cc2-c2ccc(Cl)cc2)cc1,inactive
21,Cc1ccc(C(=O)CNc2cccc(Cl)c2)cc1,"inconclusive: 20.6 µM [activator, partial curve]"
22,CCN(CC)C(=O)Oc1ccc2ccccc2c1Br,"inconclusive: 16.4 µM [activator, partial curve]"
23,COc1ccc(Nc2nc(N3CCCC3)nc3ccccc23)c(OC)c1,"inconclusive: 10 µM [inhibitor, partial curve, poor fit]"
